Reference: patent publication US4123552A, “Compositions for preserving crops and animal feedstuffs” (Chevron Research Company, priority 1975, dated 1978)

Assay: Visual corrosion damage to the can holding treated corn
Settings: rating 1-10 basis, 10 heavy corrosion

CCC(=O)O [Propionic acid, reference compound]
Corrosion 42 Days (2 Oz/Bu): 0
Corrosion 42 Days (3 Oz/Bu): 0
Corrosion 42 Days (4 Oz/Bu): 0
Corrosion 83 Days (4 Oz/Bu): 1
Corrosion 42 Days (6 Oz/Bu): 2
Corrosion 83 Days (6 Oz/Bu): 3

CCC(=O)OCOCOC(=O)CC [Oxybismethylene Propionate, Oxybismethylene Bispropionate]
Corrosion 42 Days (2 Oz/Bu): 0
Corrosion 42 Days (3 Oz/Bu): 0
Corrosion 83 Days (3 Oz/Bu): 0.5
Corrosion 42 Days (4 Oz/Bu): 0.5
Corrosion 83 Days (4 Oz/Bu): 0.5
Corrosion 42 Days (5 Oz/Bu): 1
Corrosion 83 Days (5 Oz/Bu): 1
